One molecule from doi:10.1101/2024.12.01.626218 can be followed below.

Sequences of proteins named here, by UniProt entry; tags and fusion partners are left off. A change or cut given only in a name is not applied to a line headed by its entry.
UniProt Q8VIG6: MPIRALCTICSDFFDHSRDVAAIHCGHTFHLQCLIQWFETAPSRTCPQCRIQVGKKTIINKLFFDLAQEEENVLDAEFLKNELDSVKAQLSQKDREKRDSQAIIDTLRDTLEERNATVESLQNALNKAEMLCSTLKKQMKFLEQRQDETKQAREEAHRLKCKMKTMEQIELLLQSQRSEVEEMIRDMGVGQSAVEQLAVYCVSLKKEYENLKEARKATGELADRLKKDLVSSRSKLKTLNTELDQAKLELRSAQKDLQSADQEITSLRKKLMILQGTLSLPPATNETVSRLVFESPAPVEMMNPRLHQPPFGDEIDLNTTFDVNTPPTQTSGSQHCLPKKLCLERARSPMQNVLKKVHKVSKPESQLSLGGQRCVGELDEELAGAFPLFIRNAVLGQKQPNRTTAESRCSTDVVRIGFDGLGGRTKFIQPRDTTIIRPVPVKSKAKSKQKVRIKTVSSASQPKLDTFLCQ

Results are given in words; binding and its absence hold for the method and conditions named. In cells and extracts the contact can be indirect.

The target in the assay is TRAIP-5FLAG with TRAIP-T325 mutated (mouse) (UniProt Q8VIG6). In words: co-IP.

B1: TTF2 (Transcription Termination Factor 2) (enzyme, UniProt Q5NC05 1-1138)
chain: MDLVKCPEHGDACFLKTGVRDGPNKGKSFYVCRTNTCGFVQATDIPVSHCLLHEEFVVELQGLFLPQDKKEWRLFFRCARTKAEGKQWCGNVPWRQDPNPKELSVTSKPQQPSESQLHSPSQPRNPFRVLNKNQKTLERKQFVEEGERKTADKKLRENNEQLLDQRKEQKPKSNSRMEKDPSSDLVATRQSGGDREEQEKSKFQPKTKKAEGMASKQGHGEVLQGIPKGPHMSESESRGVPNKPETLREKETQLLVPSVPGQNPESKVQKEGHVSREPLKNGEAPSAQVTQRGLAQGPLQGPSKTWRPVPEAPAAPELCSGMAHHATSSSEDSEDDGVSSRPGSPLLFDSTVDSQKKGSLQHSDQSVQRQMPAASGVSKKGDSSDPAAQRANLTTQLKQKKGTLAAVNIQALPDKGEKLLKQIQALEDALSALALSPEQGTKEKCSAQEPEQSNITKAAAAPLHLVPPQPLPRPLIQPASSLGLKAGRQETPEGASQCSGGHMNQHHLYNVWKITSEAIDELHRSLKSCPGETAVAEDPAGLKVPLLLHQKQALAWLLWRESQKPQGGILADDMGLGKTLTMIALILTKKNQQKSKEKERSEPVTWLSKNDSSVFTSSGTLIVCPASLIHHWKNEVEKRVTSNRLRIYLYHGPNRSRHAKVLSTYDIVITTYSLLAKEIPTTKQEGEVPGANLSVEGTSAPLLQVVWARIILDEAHNVKNPRVQTSIAVCKLQAQARWAVTGTPIQNNLLDMYSLMKFLRCSPFDEFSLWKSQVDNGSMKGGERLSILTKSLLLRRTKDQLDSTGKPLVALPARRCQLHRLKLSEDERAVYDIFLARSRSALQSYLKRQEGRGSHHGRSPDNPFSRVAQEFGSSVSQGCPAADSQRPSTVHVLSQLLRLRQCCCHLSLLKSALDPTELESEGLVLSLEEQLSALTLSKVDVSEPSPTVSLNGTCFKAELFDDTRRSTKVSSLLAELEAIQKGPGSQKSVIVSQWTSMLQVVALHLKKNRLTYATIDGSVNPKQRMDLVEAFNHSQGPQVMLISLLAGGVGLNLTGGNHLFLLDMHWNPSLEDQACDRIYRVGQKKDVVIHRFVCEGTVEEKILQLQEKKKDLAKQVLSGSEGPVTKLTLADLKILFGI
B1: the binding result is “no binding”.
